Record: PubChem BioAssay AID1671195 (Yale University, 2021)
Test: 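Knockdowns that increase or decrease uptake of fluorescent LDL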 (primary screen). Cell system: human Huh7 hepatoma cells. Knock-down reagent: siRNA pool against human genes, 18 nM. Duration: about 2 to 2.5 days of knockdown, then 8 h LDL uptake. Treatment: DiI-labelled LDL at 30 µg/ml for 8 h, in lipoprotein-deficient serum medium. Measurement: 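Per-cell DiI-LDL intensity by automated imaging; well means scaled to the plate median and given as a robust z-score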. Direction: robust z-score: higher = more LDL uptake after knockdown. Call rule: 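a gene counts as active if at least two replicate z-scores exceed ±2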.
The deposit covers about 22,000 reagents; this is an unselected part. In the full data, about 1,510 (6.9%) are marked active. 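Active includes knockdowns raising or lowering LDL uptake; positive z-scores mean more uptake, negative mean less.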

| gene knocked down | robust z-score, replicate 1 | robust z-score, replicate 2 | robust z-score, replicate 3 | activity call |
| --- | --- | --- | --- | --- |
| FAM135B | 0.979 | 1.57 | -1.88 | inactive |
| MGP | 0.439 | -0.533 | 0.408 | inactive |
| CCNB1 | -0.702 | 0.433 | -0.429 | inactive |
| LOC440147 (retired record) | 0.87 | 0.661 | 0.657 | inactive |
| TUSC2 | 1.44 | -0.248 | 0.0746 | inactive |
| ENKD1 | -0.447 | -0.282 | -1.1 | inactive |
| SPAG17 | -0.532 | -0.0613 | -0.041 | inactive |
| LOC391692 (retired record) | 0.12 | -0.19 | -0.17 | inactive |
| OR10A6 | 1.68 | 1.79 | 1.23 | inactive |
| SH3BGRL3 | -0.727 | -1.16 | -1.22 | inactive |
| PGGT1B | -0.616 | -0.464 | -0.234 | inactive |
| RNF220 | -1.15 | -1.12 | 0.208 | inactive |
| LINC00467 | -0.107 | 1.12 | -0.226 | inactive |
| JADE2 | -1.64 | -2 | -1.7 | inactive |

Records listed so far whose target name begins with S or s (2):
| gene knocked down | robust z-score, replicate 1 | robust z-score, replicate 2 | robust z-score, replicate 3 | activity call |
| --- | --- | --- | --- | --- |
| SPAG17 | -0.532 | -0.0613 | -0.041 | inactive |
| SH3BGRL3 | -0.727 | -1.16 | -1.22 | inactive |

The results go on:
| gene knocked down | robust z-score, replicate 1 | robust z-score, replicate 2 | robust z-score, replicate 3 | activity call |
| --- | --- | --- | --- | --- |
| AP3B2 | 0.202 | 0.578 | 0.644 | inactive |
| HACD2 | 2.08 | 1.28 | 2.68 | active |
| INS | -1.43 | -1.35 | -1.43 | inactive |
| FAM230C | 0.713 | 1.57 | 3.03 | inactive |
| ZAP70 | 0.826 | 1.7 | 0.556 | inactive |
| CDH26 | -1.9 | -1.6 | -1.95 | inactive |
| LOC144631 (retired record) | 0.379 | -0.21 | 2.09 | inactive |
| TRMT10B | -1.81 | -1.69 | -1.06 | inactive |
| ARMC3 | 0.568 | 0.567 | 0.268 | inactive |
| MLYCD | -1.59 | -1.7 | -1.58 | inactive |
| SNAI1 | -0.574 | -0.899 | -1.07 | inactive |
| TBC1D8B | 0.548 | 0.314 | 0.676 | inactive |
| CRNN | 0.181 | -0.0173 | 0.338 | inactive |
| OIP5 | 0.632 | -0.889 | 1.12 | inactive |
